Results are given in words; binding and its absence hold for the method and conditions named. In cells and extracts the contact can be indirect.

Sequences of proteins named here, by UniProt entry; tags and fusion partners are left off.
UniProt P17325: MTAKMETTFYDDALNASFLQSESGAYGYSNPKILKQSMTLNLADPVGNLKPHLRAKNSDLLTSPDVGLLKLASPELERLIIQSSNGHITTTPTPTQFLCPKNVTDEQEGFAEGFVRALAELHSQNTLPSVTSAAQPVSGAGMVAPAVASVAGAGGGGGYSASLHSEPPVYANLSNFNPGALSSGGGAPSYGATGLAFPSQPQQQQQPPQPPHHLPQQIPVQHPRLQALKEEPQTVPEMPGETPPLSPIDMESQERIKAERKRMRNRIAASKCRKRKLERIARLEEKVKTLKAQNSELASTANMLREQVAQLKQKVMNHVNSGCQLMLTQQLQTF

The experiment has as its target c-Jun (rat (endogenous in primary cortical neurons)) (UniProt P17325). Description: co-IP; c-Jun immunoprecipitated (c-Jun antibody 1:50, overnight 4 °C, Protein G Sepharose) from RIPA lysates of rat cortical neurons treated 1 h with DEM (100 μM, oxidative stress); western blot. (Immunoblotting shows a protein as a band on a membrane.)

B1: JunD (protein, UniProt P52909 1-341)
chain: METPFYGEEALSGLAAGASSVAGAAGAPGGGGFAPPGRAFPGAPPTSSMLKKDALTLSLAEQGAAGLKPGSATAPSALRPDGAPDGLLASPDLGLLKLASPELERLIIQSNGLVTTTPTSTQFLYPKVAASEEQEFAEGFVKALEDLHKQSQLGAATAATSGAPAPPAPADLAATPGATETPVYANLSSFAGGAGPPGGAATVAFAAEPVPFPPPPGALGPPPPPHPPRLAALKDEPQTVPDVPSFGDSPPLSPIDMDTQERIKAERKRLRNRIAASKCRKRKLERISRLEEKVKTLKSQNTELASTASLLREQVAQLKQKVLSHVNSGCQLLPQHQVPAY
On to B1, for which the binding entry is recorded as “no binding”.

B2: JunB (protein, UniProt P24898 1-344)
chain: MCTKMEQPFYHDDSYAAAGYGRSPGSLSLHDYKLLKPTLALNLADPYRGLKGPGARGPGPEGSGAGSYFSGQGSDTGASLKLASTELERLIVPNSNGVITTTPTPPGQYFYPRGGGSGGGTGGGVTEEQEGFADGFVKALDDLHKMNHVTPPNVSLGASGGPQAGPGGVYAGPEPPPVYTNLSSYSPASAPSGGSGTAVGTGSSYPTATISYLPHAPPFAGGHPAQLGLSRGASAFKEEPQTVPEARSRDATPPVSPINMEDQERIKVERKRLRNRLAATKCRKRKLERIARLEDKVKTLKAENAGLSSAAGLLREQVAQLKQKVMTHVSNGCQLLLGVKGHAF
As to B2, the binding result is listed as “no binding”.
